Literature values as cited in patent US7884136B2, “Modified-release formulations of a bupropion salt” (Biovail Laboratories International S.R.L., priority 2005, dated 2011).
Some entries share one result that the patent states for a list of compounds.

Settings: Sterol and Sterol Derivative Surfactants; cited from earlier work

Compound | HLB
CC(C)=CCC[C@@H](C)[C@H]1CC[C@@]2(C)C3=C(CC[C@]12C)[C@@]1(C)CC[C@H](O)C(C)(C)[C@@H]1CC3 [lanosterol] | <10
CC(C)CCC[C@@H](C)[C@H]1CC[C@H]2[C@@H]3CC=C4C[C@@H](O)CC[C@]4(C)[C@H]3CC[C@]12C [Cholesterol] | <10
sitosterol | <10
